Measurements from ChEMBL document CHEMBL4411283, “The p53 stabilizing agent CP-31398 and multi-kinase inhibitors. Designing, synthesizing and screening of styrylquinazoline series” (Eur J Med Chem, 2019).
pIC50: −log10 of the molar value.

Assays:
HCT-116 [1] = assay: cells; settings: Homo sapiens, HCT-116, 72 h
HCT-116 [2] = assay: cells; settings: Homo sapiens, HCT-116, 72 h; remark: listed apart in the source

- pIC50 (HCT-116 [1]): 4.29
- pIC50 (HCT-116 [2]): 4.35
Structure (SMILES): Cc1ccc(NC(=O)c2ccc(CN3CCN(C)CC3)cc2)cc1Nc1nccc(-c2cccnc2)n1 [IMATINIB]
